No constants are given. Whether binding was seen depends on the method and setting.

One experiment deals with T1, MBP-Kap114 (S. cerevisiae, UniProt P53067 1-1004).
T1 construct: TEV site between MBP and Kap114; pMalE modified with a His6-tag immediately N-terminal of MBP and a TEV site after MBP; held on amylose resin in the pull-downs; also called immobilized MBP-Kap114; iK; source: E. coli BL21 Gold, purified (amylose beads, HiTrap Q, SEC); not shown: MBP, N-terminal, kept
T1 sequence: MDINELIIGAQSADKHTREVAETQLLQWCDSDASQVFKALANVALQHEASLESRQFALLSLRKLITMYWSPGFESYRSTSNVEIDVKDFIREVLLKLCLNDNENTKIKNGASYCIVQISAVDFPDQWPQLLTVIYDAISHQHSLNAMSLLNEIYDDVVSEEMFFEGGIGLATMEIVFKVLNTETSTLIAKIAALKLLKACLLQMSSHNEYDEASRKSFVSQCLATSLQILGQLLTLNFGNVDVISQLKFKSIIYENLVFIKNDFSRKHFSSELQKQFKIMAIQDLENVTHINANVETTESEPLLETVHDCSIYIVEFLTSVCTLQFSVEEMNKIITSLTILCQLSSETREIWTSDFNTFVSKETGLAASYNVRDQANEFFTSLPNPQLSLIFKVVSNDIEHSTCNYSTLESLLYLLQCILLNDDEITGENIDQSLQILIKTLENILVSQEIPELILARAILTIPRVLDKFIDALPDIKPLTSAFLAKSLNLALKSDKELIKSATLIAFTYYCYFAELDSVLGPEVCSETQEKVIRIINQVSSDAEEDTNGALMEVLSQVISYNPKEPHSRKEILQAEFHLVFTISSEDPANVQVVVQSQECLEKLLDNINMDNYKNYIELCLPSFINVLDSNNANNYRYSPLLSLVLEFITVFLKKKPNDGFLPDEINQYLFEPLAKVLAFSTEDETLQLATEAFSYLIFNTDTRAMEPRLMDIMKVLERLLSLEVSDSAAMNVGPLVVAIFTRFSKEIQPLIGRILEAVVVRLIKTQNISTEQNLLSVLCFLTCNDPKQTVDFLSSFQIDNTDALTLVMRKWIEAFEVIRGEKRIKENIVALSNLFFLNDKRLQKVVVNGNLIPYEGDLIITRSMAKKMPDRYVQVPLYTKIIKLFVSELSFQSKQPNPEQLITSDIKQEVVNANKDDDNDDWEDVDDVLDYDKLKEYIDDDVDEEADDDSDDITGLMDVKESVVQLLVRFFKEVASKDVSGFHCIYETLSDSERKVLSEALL
The experiment can be described thus: pull-down; MBP-Kap114 (WT or mutant; or MBP alone) 1 µM immobilized on amylose resin, equimolar Nap1_(2) ± H2A-H2B (1 or 2 µM) ± Ran^GTP; Assay Buffer (20 mM HEPES pH 7.4, 150 mM NaCl, 2 mM MgCl2, 10% glycerol, 2 mM DTT), 30 min at 4°C; Coomassie-stained SDS-PAGE; both purified.

A further experiment has as its target T2, Kap114 (S. cerevisiae, UniProt P53067 1-1004).
T2 construct: also called Sc Kap114; source: E. coli, expressed as GST-Kap114, purified (Glutathione Sepharose 4B, on-column TEV cleavage, SEC)
T2 sequence: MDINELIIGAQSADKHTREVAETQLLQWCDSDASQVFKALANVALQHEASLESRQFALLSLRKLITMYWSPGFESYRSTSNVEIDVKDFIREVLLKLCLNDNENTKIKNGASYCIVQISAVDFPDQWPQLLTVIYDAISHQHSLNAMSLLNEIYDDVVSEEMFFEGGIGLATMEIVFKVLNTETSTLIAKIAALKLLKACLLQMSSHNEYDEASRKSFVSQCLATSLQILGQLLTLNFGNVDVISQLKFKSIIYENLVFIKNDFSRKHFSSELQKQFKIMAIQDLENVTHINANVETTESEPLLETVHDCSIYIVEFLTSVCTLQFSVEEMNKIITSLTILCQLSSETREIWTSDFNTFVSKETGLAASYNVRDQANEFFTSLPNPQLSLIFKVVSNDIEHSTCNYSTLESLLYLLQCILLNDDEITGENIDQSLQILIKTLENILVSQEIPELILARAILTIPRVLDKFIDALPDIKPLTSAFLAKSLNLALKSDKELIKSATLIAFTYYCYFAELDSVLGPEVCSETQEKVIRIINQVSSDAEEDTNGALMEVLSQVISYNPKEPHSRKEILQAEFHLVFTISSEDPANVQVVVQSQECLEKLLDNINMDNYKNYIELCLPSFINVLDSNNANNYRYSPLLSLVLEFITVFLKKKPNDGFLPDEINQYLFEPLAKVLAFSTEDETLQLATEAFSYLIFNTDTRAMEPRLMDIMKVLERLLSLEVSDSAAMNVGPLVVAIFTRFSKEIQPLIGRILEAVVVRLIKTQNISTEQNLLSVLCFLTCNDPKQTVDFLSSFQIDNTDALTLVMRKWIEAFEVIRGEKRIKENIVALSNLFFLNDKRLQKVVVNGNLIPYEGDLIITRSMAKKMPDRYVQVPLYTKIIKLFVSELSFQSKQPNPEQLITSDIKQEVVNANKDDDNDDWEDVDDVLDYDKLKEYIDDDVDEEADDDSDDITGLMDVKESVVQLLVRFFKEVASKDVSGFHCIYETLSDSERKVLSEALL
The experiment can be described thus: condition: only with H2A-H2B in excess (1:1:2 molar ratio K, N, H); SEC-MALS; 1:1:2 mixture of Kap114, Nap1_(2) and H2A-H2B (H2A-H2B in excess); Assay buffer without glycerol; both purified.

B1: Nap1 βERQ (E288A/R290A/Q292A) (protein, UniProt P25293 1-417)
chain: MSDPIRTKPKSSMQIDNAPTPHNTPASVLNPSYLKNGNPVRAQAQEQDDKIGTINEEDILANQPLLLQSIQDRLGSLVGQDSGYVGGLPKNVKEKLLSLKTLQSELFEVEKEFQVEMFELENKFLQKYKPIWEQRSRIISGQEQPKPEQIAKGQEIVESLNETELLVDEEEKAQNDSEEEQVKGIPSFWLTALENLPIVADTITDRDAEVLEYLQDIGLEYLTDGRPGFKLLFRFDSSANPFFTNDILAKTYFYQKELGYSGDFIYDHAEGAEISWKDNAHNVTVDLAMAKARNKTTKQVRTIEKITPIESFFNFFDPPKIQNEDQDEELEEDLEERLALDYSIGEQLKDKLIPRAVDWFTGAALEFEFEEDEEEADEDEDEEEDDDHGLEDDDGESAEEQDDFAGRPEQAPECKQS
On to B1, for which the binding result with MBP-Kap114 was “no binding (tested: 1 µM)”.

B2: Nap1 FL (C200A, C249A, C272A) (natural protein, S. cerevisiae, UniProt P25293 1-417, looked up)
chain: MSDPIRTKPKSSMQIDNAPTPHNTPASVLNPSYLKNGNPVRAQAQEQDDKIGTINEEDILANQPLLLQSIQDRLGSLVGQDSGYVGGLPKNVKEKLLSLKTLQSELFEVEKEFQVEMFELENKFLQKYKPIWEQRSRIISGQEQPKPEQIAKGQEIVESLNETELLVDEEEKAQNDSEEEQVKGIPSFWLTALENLPIVADTITDRDAEVLEYLQDIGLEYLTDGRPGFKLLFRFDSSANPFFTNDILAKTYFYQKELGYSGDFIYDHAEGAEISWKDNAHNVTVDLEMRKQRNKTTKQVRTIEKITPIESFFNFFDPPKIQNEDQDEELEEDLEERLALDYSIGEQLKDKLIPRAVDWFTGAALEFEFEEDEEEADEDEDEEEDDDHGLEDDDGESAEEQDDFAGRPEQAPECKQS
notes: Nap1 (nucleosome assembly protein 1), S. cerevisiae, full length (FL), with C200A, C249A, C272A for specific labeling on 414C; pHAT4 vector, gift from Sheena D'Arcy; Counted as a dimer (Nap1_(2)) in all molar ratios; alone a mixture of dimers and tetramers; also called Nap1_(2); Nap1_(2) FL; source: E. coli BL21 gold, purified (Ni-NTA, TEV cleavage, HiTrap Q, Superdex S200)
Turning to B2, in the experiment with Kap114, the binding result is on record as “no binding”.

The values above are taken from publication PMC11602657, “Nap1 and Kap114 co-chaperone H2A-H2B and facilitate targeted histone release in the nucleus” (The Journal of Cell Biology, 2024).
